Measurements reported in patent publication US20090143285A1, “TARGET PROTEIN AND TARGET GENE FOR DRUG DISCOVERY AND SCREENING METHOD” (REVERSE PROTEOMICS RESEARCH INSTITUTE CO., LTD., priority 2005, published 2009).
“Also recorded” adds a separate entry of the source. Like-named read-outs stand apart in the source and are kept apart here.

Sequences of proteins named here, by UniProt entry; tags and fusion partners are left off.
UniProt P09104, whole entry: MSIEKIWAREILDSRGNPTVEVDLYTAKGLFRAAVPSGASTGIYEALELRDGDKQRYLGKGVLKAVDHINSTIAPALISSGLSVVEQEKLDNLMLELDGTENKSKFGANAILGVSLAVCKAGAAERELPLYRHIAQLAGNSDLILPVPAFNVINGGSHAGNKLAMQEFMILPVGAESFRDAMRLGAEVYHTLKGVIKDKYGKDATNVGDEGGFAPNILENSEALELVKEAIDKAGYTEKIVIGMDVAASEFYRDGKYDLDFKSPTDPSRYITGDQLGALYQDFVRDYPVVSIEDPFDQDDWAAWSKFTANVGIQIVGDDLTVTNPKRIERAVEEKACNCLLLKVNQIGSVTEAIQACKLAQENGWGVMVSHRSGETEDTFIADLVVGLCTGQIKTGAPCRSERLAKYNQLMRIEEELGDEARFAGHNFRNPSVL

How the values were obtained:
FLJ42665-derived protein = FLJ42665-derived protein (Homo sapiens, UniProt P09104)
Source text: To analyze the interactions between commonly used drugs and proteins expressed from human full-length cDNA clones while keeping both the proteins and the compounds in non-modified, non-immobilized state, size exclusion chromatography (SEC) and mass analysis were used in combination. The specific procedures are shown below.
The compound-protein mixture prepared in step 1 was subjected to chromatography using an SEC column, the compound and the protein were separated by SEC, and the compound that interacted with the bound compound or protein contained in the protein fraction was analyzed using a mass analyzer.
Protein concentrations were measured using BCA Protein Assay (PIERCE), in consideration of the purity calculated by SDS-PAGE.
Mass analysis was performed using LCQ DECA XP (Thermoelectron) or Q-TOF micro (Micromass), equipped with an ESI probe. The LC pump used was Agilent 1100 (Yokogawa Analytical Systems), and the autosampler used was HTC-PAL (CTC Analytics) equipped with a cooling stacker. The SEC column used was a micro-LC column or a 384-well spin column. […]
In the 384-well spin column method, Unifilter 100 (Whatman), packed with 10 μL (dry volume) of Bio-Gel P6 (BIO-RAD) and swollen with milliQ water, was used as the SEC column. […] The SEC spin column was mounted on an acetonitrile-aliquoted 384-well U-bottom plate and centrifuged; the SEC spin column filtrate, which is a protein fraction, was recovered in 50% acetonitrile. The protein precipitate produced by the acetonitrile was removed via centrifugation and filtration for deproteinization; the resulting filtrate was concentrated by centrifugal concentration and re-dissolved in 10 μL of 50% methanol to obtain a mass analysis sample. The mobile phase supplied to the mass analyzer was 0.1% formic acid/50% methanol solution in the positive ion mode, and 0.1% ammonia/50% methanol solution in the negative ion mode; these mobile phases were used at a flow rate of 40 μL/min. 2-μL of mass analysis samples were injected using an autosampler at 2-minute intervals; the mass spectral intensity of the compound was measured to retrieve the spectral intensity of the pharmaceutical compound contained in the SEC spin column filtrate (protein fraction eluted from SEC).

[1] = tested on: FLJXXXXX-derived proteins; assay: SEC/MS spin column interaction analysis of FLJXXXXX-derived proteins and various compounds (Tables 30-1 to 30-4); type: binding, human; details: SEC spin column filtrate, spectral intensity increased with doses of compound and protein

| Compound | spectrum intensity of the compound in the SEC spin column filtrate (FLJ42665-derived protein; compound 12.5 μM, protein 0 μM) | spectrum intensity of the compound in the SEC spin column filtrate (FLJ42665-derived protein; compound 12.5 μM, protein 5 μM) | spectrum intensity of the compound in the SEC spin column filtrate (FLJ42665-derived protein; compound 12.5 μM, protein 10 μM) | spectrum intensity of the compound in the SEC spin column filtrate (FLJ42665-derived protein; compound 12.5 μM, protein 25 μM) | spectrum intensity of the compound in the SEC spin column filtrate (FLJ42665-derived protein; compound 25 μM, protein 0 μM) | spectrum intensity of the compound in the SEC spin column filtrate (FLJ42665-derived protein; compound 25 μM, protein 5 μM) | spectrum intensity of the compound in the SEC spin column filtrate (FLJ42665-derived protein; compound 25 μM, protein 10 μM) | spectrum intensity of the compound in the SEC spin column filtrate (FLJ42665-derived protein; compound 25 μM, protein 25 μM) | spectrum intensity of the compound in the SEC spin column filtrate (FLJ42665-derived protein; compound 62.5 μM, protein 0 μM) | spectrum intensity of the compound in the SEC spin column filtrate (FLJ42665-derived protein; compound 62.5 μM, protein 5 μM) | spectrum intensity of the compound in the SEC spin column filtrate (FLJ42665-derived protein; compound 62.5 μM, protein 10 μM) | spectrum intensity of the compound in the SEC spin column filtrate (FLJ42665-derived protein; compound 62.5 μM, protein 25 μM) | interaction judged from spectrum intensity of the compound in the SEC spin column filtrate (protein fraction eluted from SEC) (FLJ42665-derived protein; spin column method, doses of both compound and protein varied) | FLJ No of the derived protein with which the compound was judged to exhibit a concentration-dependent interaction [1] |
| --- | --- | --- | --- | --- | --- | --- | --- | --- | --- | --- | --- | --- | --- | --- |
| CC(C)(C)CC(C)(C)c1ccc(OCCOCC[N+](C)(C)Cc2ccccc2)cc1 [benzethonium] | 19475 | 26605 | 47666 | 130631 | 27192 | 21193 | 31214 | 124057 | 14420 | 28967 | 32809 | 108557 | dose-dependent interaction | FLJ42665; also recorded: FLJ35353 |
| CC(C)(C)c1ccc(C(=O)CCCN2CCC(OC(c3ccccc3)c3ccccc3)CC2)cc1 [ebastine] | – | – | – | – | – | – | – | – | – | – | – | – | – | FLJ35353 |
